Results published in publication PMC9885499.
These are yes or no findings as the source states them, for the method shown. Binding seen in cells or lysates may run through a third protein. Some entries that bind do so weakly or less than the wild type.

Sequences of proteins named here, by UniProt entry; tags and fusion partners are left off. A change or cut given only in a name is not applied to a line headed by its entry. A line that says so, or that is headed by a name, gives the form on record, which may keep a tag or linker. Residues count along the entry.
UniProt Q8TB45: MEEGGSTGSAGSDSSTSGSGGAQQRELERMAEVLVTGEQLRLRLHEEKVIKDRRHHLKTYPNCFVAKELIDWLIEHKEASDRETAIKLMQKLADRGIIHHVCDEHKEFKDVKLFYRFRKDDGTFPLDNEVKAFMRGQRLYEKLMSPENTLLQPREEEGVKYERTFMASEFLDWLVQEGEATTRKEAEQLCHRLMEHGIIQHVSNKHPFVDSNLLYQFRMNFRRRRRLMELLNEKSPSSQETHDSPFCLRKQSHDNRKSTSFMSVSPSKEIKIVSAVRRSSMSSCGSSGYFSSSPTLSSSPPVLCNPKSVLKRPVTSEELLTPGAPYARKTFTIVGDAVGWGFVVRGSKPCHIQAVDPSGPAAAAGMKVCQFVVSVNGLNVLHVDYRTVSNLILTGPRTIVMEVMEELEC
N-terminal Flag tagged DEPTOR PDZ domain: residues 330-407 of Q8TB45
UniProt Q9GZV5: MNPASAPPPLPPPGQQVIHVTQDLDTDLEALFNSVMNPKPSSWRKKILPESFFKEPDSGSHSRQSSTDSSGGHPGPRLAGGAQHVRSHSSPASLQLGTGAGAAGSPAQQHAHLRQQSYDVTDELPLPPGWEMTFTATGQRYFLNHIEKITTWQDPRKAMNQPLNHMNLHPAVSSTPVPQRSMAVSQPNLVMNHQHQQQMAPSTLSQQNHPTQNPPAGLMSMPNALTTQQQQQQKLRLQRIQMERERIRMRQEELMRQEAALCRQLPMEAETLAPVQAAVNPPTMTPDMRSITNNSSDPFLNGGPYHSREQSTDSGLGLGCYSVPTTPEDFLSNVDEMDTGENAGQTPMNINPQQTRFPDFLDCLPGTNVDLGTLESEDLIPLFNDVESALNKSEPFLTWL
UniProt Q03431, residues 27-593: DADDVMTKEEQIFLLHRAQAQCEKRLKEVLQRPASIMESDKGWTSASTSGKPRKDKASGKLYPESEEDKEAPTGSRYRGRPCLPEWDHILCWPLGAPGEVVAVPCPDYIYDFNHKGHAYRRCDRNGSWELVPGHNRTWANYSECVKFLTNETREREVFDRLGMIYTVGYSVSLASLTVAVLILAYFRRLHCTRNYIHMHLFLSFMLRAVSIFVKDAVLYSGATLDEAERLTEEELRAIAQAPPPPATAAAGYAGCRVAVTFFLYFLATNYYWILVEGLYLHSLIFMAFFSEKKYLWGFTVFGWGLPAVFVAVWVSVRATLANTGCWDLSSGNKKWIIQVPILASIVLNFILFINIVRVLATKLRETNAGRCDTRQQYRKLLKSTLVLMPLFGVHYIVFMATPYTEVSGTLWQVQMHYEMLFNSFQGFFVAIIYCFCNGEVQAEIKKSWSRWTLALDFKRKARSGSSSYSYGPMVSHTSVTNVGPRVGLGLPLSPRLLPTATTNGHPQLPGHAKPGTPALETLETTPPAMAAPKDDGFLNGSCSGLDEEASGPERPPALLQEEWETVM

Columns and labels:
[1] = molecular target: N-terminal Flag tagged DEPTOR PDZ domain (UniProt Q8TB45); assay: co-IP; HEK293T cells cotransfected; starved O/N, then 10% FBS alone or with MG132 for 4 h (or starvation only); Flag-tagged bait pulled down with anti-Flag magnetic beads, HA-tagged partner detected by western blot with anti-HA antibody
[2] = molecular target: N-terminal Flag tagged DEPTOR (UniProt Q8TB45); assay: as above
N-terminal HA tagged TAZ = N-terminal HA tagged TAZ (UniProt Q9GZV5); assay: co-IP; HEK293T cells cotransfected; starved O/N, then 10% FBS alone or with MG132 for 4 h (or starvation only); HA-tagged bait pulled down with anti-HA magnetic beads, Flag-tagged partner detected by western blot with anti-Flag antibody

binding [1] | binding [2] | binding (N-terminal HA tagged TAZ) | Substance
binds | binds | – | N-terminal HA tagged PTH1R (from UniProt Q03431 27-593) (receptor)
– | – | binds | N-terminal Flag tagged DEPTOR (from UniProt Q8TB45 1-409)
